Source: PMC12329599, “Acetylation of microtubule-binding PinX1 orchestrates ribosome biogenesis to nutrient starvation via the RNA polymerase I preinitiation complex” (The Journal of Biological Chemistry, 2025)

Protein sequences, listed by entry. Tags and fused reporters are not part of them.
UniProt P06748: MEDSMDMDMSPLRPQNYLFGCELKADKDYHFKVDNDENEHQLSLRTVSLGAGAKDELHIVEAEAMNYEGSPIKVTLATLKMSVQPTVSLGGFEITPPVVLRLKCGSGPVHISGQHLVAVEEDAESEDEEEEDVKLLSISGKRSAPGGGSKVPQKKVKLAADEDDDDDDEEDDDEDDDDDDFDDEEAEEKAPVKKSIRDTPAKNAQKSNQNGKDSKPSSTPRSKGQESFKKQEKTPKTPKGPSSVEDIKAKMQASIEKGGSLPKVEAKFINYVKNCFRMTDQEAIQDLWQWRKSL

Target: T1, PinX1-3×Flag wild type, expressed in HCT116 cells (human) (UniProt Q96BK5)
T1 sequence: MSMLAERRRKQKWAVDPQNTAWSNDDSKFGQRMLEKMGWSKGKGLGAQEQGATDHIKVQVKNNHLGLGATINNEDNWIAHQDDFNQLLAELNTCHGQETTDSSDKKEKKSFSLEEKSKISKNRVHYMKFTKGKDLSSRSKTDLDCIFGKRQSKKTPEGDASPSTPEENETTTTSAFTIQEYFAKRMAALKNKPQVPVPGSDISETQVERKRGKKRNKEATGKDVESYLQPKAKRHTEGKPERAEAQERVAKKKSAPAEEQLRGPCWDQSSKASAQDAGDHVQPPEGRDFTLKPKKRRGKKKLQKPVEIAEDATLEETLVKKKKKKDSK
Assay: affinity purification with mass spectrometry; 3×Flag-PinX1 WT or 6KQ transfected into HCT116 cells, lysis in BC100, anti-Flag M2 beads, SDS-PAGE, LC-MS/MS

binding: binds
Substance: NPM, endogenous in HCT116 cells (from UniProt P06748 1-294)

Results are given in words; binding and its absence hold for the method and conditions named. Binding seen in cells or lysates may run through a third protein. A yes stands for co-enrichment or nearness to the bait. Other partners may have been found. Sequences can lack the tags named with a protein.
